Data as given in PubChem BioAssay AID652259 (Drosophila RNAi Screening Center, 2013).

Screen: 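Genome-wide hunt for genes that control Wingless pathway activity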 (primary screen)
Cells: Drosophila clone 8 imaginal disc epithelial cells
Reagent: long dsRNA against Drosophila genes
Conditions: pathway stimulated by co-transfected Wingless expression plasmid
Measured: 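Dual luciferase reads per well after Wingless plasmid stimulation: reporter firefly light and Renilla control light; activity is firefly divided by Renilla, a ratio not deposited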
Scale: firefly reporter light: higher = more Wg reporter light, before normalisation; Renilla control light: higher = more transfected or surviving cells
Rule for the call: 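Strong candidates differ from their plate mean by at least two out of four per-plate statistical tests; weak candidates meet just one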
Calls: active = candidate regulator (raises or lowers reporter); inactive = not a candidate
In all, the deposit lists about 22,000 reagents; shown is a random part of those that have a named target and a result. Of all reagents, 233 (1.1%) got an active call. 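Light values are raw, unnormalised plate reads; the ratio scores behind the reporter calls were not deposited.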 Reagents against one gene are numbered here. Not given: the amount of reagent, the time to read-out, the dose of the treatment.

Against Su(var)3-3 (Suppressor of variegation 3-3), the values are firefly reporter light, replicate 1 = 4000; Renilla control light, replicate 1 = 1893; inactive.
Against form3 (formin 3) #1 the deposit lists firefly reporter light, replicate 1 = 2925; firefly reporter light, replicate 2 = 9293; Renilla control light, replicate 1 = 2140; Renilla control light, replicate 2 = 3658; inactive.
For form3 (formin 3) #2, the values are firefly reporter light, replicate 1 = 4500; Renilla control light, replicate 1 = 2716; inactive.
form3 (formin 3) #3 scored firefly reporter light, replicate 1 = 1668; firefly reporter light, replicate 2 = 8112; Renilla control light, replicate 1 = 1644; Renilla control light, replicate 2 = 2758; inactive.
Depletion of CG11300 resulted in: firefly reporter light, replicate 1 = 2565; firefly reporter light, replicate 2 = 8019; Renilla control light, replicate 1 = 636; Renilla control light, replicate 2 = 2790; inactive.
RpLP0-like (Ribosomal protein LP0-like) gave firefly reporter light, replicate 1 = 11290; Renilla control light, replicate 1 = 3648; inactive.
Depletion of RabX6 resulted in: firefly reporter light, replicate 1 = 4345; Renilla control light, replicate 1 = 2775; inactive.
luna #1 gave firefly reporter light, replicate 1 = 21403; Renilla control light, replicate 1 = 13783; inactive.
luna #2 gave firefly reporter light, replicate 1 = 2548; firefly reporter light, replicate 2 = 7905; Renilla control light, replicate 1 = 273; Renilla control light, replicate 2 = 848; inactive.
Against luna #3, the values are firefly reporter light, replicate 1 = 4578; firefly reporter light, replicate 2 = 16166; Renilla control light, replicate 1 = 1536; Renilla control light, replicate 2 = 5184; inactive.
After knock-down of js (jiangshi) the results were firefly reporter light, replicate 1 = 13378; Renilla control light, replicate 1 = 2842; inactive.
Against ATPsynCF6L (ATP synthase, coupling factor 6-like), the values are firefly reporter light, replicate 1 = 1507; firefly reporter light, replicate 2 = 10149; Renilla control light, replicate 1 = 1468; Renilla control light, replicate 2 = 4529; inactive.

Sorted by “Renilla control light, replicate 1” (high to low): 2 of the entries above
RpLP0-like (Ribosomal protein LP0-like) → firefly reporter light, replicate 1: 11290; Renilla control light, replicate 1: 3648; Outcome: inactive
RabX6 → firefly reporter light, replicate 1: 4345; Renilla control light, replicate 1: 2775; Outcome: inactive
